Measurements taken from patent US11414454B2, “Compositions, methods, and systems for affinity-based protein identification and purification” (Auctus Biologies, Inc., priority 2017, dated 2022).
Some of these results come from one statement about several compounds together. No end group written: not given here.

System: RPtag(large)
Experiment: pH profile of Kd by fluorescence anisotropy
Format: binding, Thermoanaerobacter tengcongensis
Settings: buffers pH 1.5 to 13, 100 mM, 0.005% Tween 20
Protocol: The Kds of Nd8,Cd4 for RPtag(large) was measured in the presence of buffers of different pHs ranging from 1.5 to 13.
For these experiments, Kds were measured by fluorescence anisotropy as described above in the following buffers, all at 100 mM with 0.005% Tween 20: glycine pH 1.5, glycine pH 2.0, glycine pH 3.0, acetate pH 4.5, 2-(N-morpholino)ethanesulfonic acid pH 6.0, tris pH 7.0, tris pH 7.5, tris pH 8.0, tris pH 8.5, borate pH 10.0, phosphate pH 11.5, phosphate pH 13.0.

Sequence | pH range of maximum affinity
KIANFIPAELKLITKANVQ [Nd2, p5a, e18a, KIANFIPAELKLITKANVQ] | 4-10 pH
PAELKLITK [Nd8, Cd4, PAELKLITK] | 4-10 pH
